This is one part of the list. The main result of the screen is listed elsewhere. These columns were measured beside it and carry no call. Most of these compounds were active or inconclusive in the main read-out, so they are no random draw.
Assay: blockers of dexamethasone-driven GR-EGFP nuclear import – imaging, high-content imaging, GR-EGFP cells, confirmation (AID 463116)
Conditions: 3617.4 GR-EGFP nuclear translocation imaging, dexamethasone-induced; measured here: cell count per field; at 20 µM

| Structure (SMILES) | z-score |
| --- | --- |
| CCC(C)(C)c1ccc(OCCCC[n+]2cccc(C)c2C)c(C(C)(C)CC)c1 | -3.88 |
| CCOC(=O)C(=Cc1c[nH]c2ccc(S(=O)(=O)N(C)C)cc12)C(=O)OCC | 0.236 |
| COc1ccc(-n2nc(C(=O)c3cccs3)cc(-c3nc4ccccc4[nH]3)c2=N)cc1 | 0.699 |
| CCn1c(SCC(=O)N2CCOCC2)nc2oc3c(Cl)cc(Cl)cc3c(=O)c2c1=O | 0.251 |
| CC(=O)NC(CSC(CC(=O)c1ccco1)c1ccc(C)cc1)C(=O)O (configuration not stated) | 1.43 |
| CC1(C)CC(=O)C2=C(C1)Oc1nc3ccccc3cc1C2C(C#N)C#N (configuration not stated) | 0.411 |
| CCCCNC1C(CC)C(CCC)C(C#N)(C#N)C1(C#N)C#N (configuration not stated) | 0.227 |
| CCOC(=O)C1=C(Cc2ccc(OC)cc2)C(=O)c2ccccc2C1=O | 0.475 |
| CC(=O)Oc1ccc(OC(C)=O)c(SCCCCCCl)c1 | -0.248 |
| N#CC1=C(N)N(c2ccccc2)C(c2cccc([N+](=O)[O-])c2)C1(C#N)C#N (configuration not stated) | 0.259 |
| O=[N+]([O-])/C=C/c1cn(Cc2ccc(Cl)cc2)c2ccccc12 | 0.0425 |
| COc1ccc(-c2csc3ncnc(Cl)c23)cc1 | 0.176 |
| CSc1nnc(C)c(/C=C/Nc2ccc(C)cc2)n1 | 0.586 |
| CC1CCN(C(=O)c2ccc3c(Cl)c4c(nc3c2)CCCC4)CC1 | 0.435 |
| CN(C)c1ccc(/C=C2\N=C(c3ccc(Cl)c([N+](=O)[O-])c3)NC2=O)cc1 | -0.0211 |
| Cc1nc([N+](=O)[O-])c(Br)n1Cc1ccccc1 | 0.21 |
| Cc1ccc(-c2csc3ncnc(Sc4nnc(CN5CCCCCC5=O)o4)c23)cc1 | -0.583 |
| COc1cc2c(cc1OC)C(SC)=NC1(CCCC1)C2 | 0.149 |
| COc1ccccc1-c1nnc(Sc2nc([N+](=O)[O-])nn2C)o1 | 0.832 |
| CC(=O)OCCN(C)c1cc(SC(C)C)c2nonc2c1[N+](=O)[O-] | -0.0884 |
| CC(=O)OCCCNc1cc(SCc2ccco2)c2nonc2c1[N+](=O)[O-] | 0.452 |
| CCCNC(=O)Cn1c(=O)/c(=C\c2ccc(-c3ccc([N+](=O)[O-])cc3)o2)s/c1=C\C(=O)C(C)(C)C | -0.0798 |
| Cc1ccc(NC(=O)c2cc(N3C(=O)C=CC3=O)ccc2N2CCOCC2)cc1 | -2.44 |
| CN1CCN(C2=C(Cl)C(=O)C(c3cnc(N4CCCCC4)s3)=C(Cl)C2=O)CC1 | -1.21 |
| CCN(CC)C(=O)c1cc([N+](=O)[O-])cc2c1-c1ccc([N+](=O)[O-])cc1C2=C(C#N)C#N | 0.185 |
| CCn1c(C)c(CS(=O)(=O)c2ccccc2)[nH]c1=O | 0.64 |

Three entries out of the list, ordered by molecular weight, ascending.

| Structure (SMILES) | z-score |
| --- | --- |
| O=[N+]([O-])/C=C/c1cn(Cc2ccc(Cl)cc2)c2ccccc12 | 0.0425 |
| CCOC(=O)C1=C(Cc2ccc(OC)cc2)C(=O)c2ccccc2C1=O | 0.475 |
| CCC(C)(C)c1ccc(OCCCC[n+]2cccc(C)c2C)c(C(C)(C)CC)c1 | -3.88 |

Next part

| Structure (SMILES) | z-score |
| --- | --- |
| O=C(O)CC1CCC(=C(Cl)Cl)C1 (configuration not stated) | 0.519 |
| O=C(O)c1ccc(C=C(c2nc3ccccc3s2)c2nc3ccccc3s2)cc1 | 0.387 |
| N#C/C(=C/c1ccc(N2CCCCC2)o1)c1cccc(F)c1 | 0.404 |
| COc1ccc2nc(N3CCCC3)c(C#N)cc2c1 | 0.499 |
| COc1ccc(N(C(=O)CCl)C(C(=O)NCCc2ccccc2)c2cccs2)cc1 (configuration not stated) | 0.0122 |
| CCCn1nc(-c2ccccc2)c2nc3ccccc3nc21 | 0.53 |
| COc1ccc(-n2ncc(Cl)c(Cl)c2=O)cc1 | -0.22 |
| CCOC(=O)c1c(NC(=S)N2CCOCC2)sc2c1CCN(C(=O)OCC)C2 | 0.77 |
| Cc1ccc(C(=O)/C=C\C(=O)c2ccc(C)cc2)cc1 | 0.618 |
| N#Cc1c(Cl)c(Cl)c2nnc(-c3ccc(Br)cc3)n2c1Cl | 0.28 |
| CC(=O)Nc1cccc(C(=O)/C=C/c2cccs2)c1 | 0.833 |
| Cc1ccc(-c2nnc(Sc3nc4ccccc4o3)c3ccccc23)cc1 | 0.00155 |
| Clc1ccc(N=c2ssnc2Cl)nc1 | 0.187 |
| O=C(NCc1cccnc1)/C(=C\c1ccc(-c2ccc(Cl)c(Cl)c2)o1)S(=O)(=O)c1ccccc1 | 0.497 |
| COc1cc(/C=C/C(=O)c2ccc(F)cc2)cc(OC)c1OC | 0.209 |
| O=C(/C=C/c1ccc(O)c(O)c1)c1ccccc1O | -0.491 |
| O=C(c1ccc(S(=O)(=O)Cc2cc(F)ccc2F)c([N+](=O)[O-])c1)N1CCCC1 | 0.17 |
| COc1ccc(N(C(=O)CCl)C(C(=O)NC2CCCCC2)c2cccnc2)cc1 (configuration not stated) | 0.661 |
| COc1ccc(CS(=O)(=O)/C(Cl)=C(/Cl)C(=O)Nc2ccc(OC)nc2)cc1 | -0.0772 |
| Cc1ccc2nc(/C(C#N)=C\c3ccc(N4CCOCC4)o3)[nH]c2c1 | 0.616 |
| CC(C)(C)c1cc(CN(CCO)CCO)cc(C(C)(C)C)c1O | -1.07 |
| COC(=O)c1cc([N+](=O)[O-])c(-n2ccnc2)c([N+](=O)[O-])c1 | 0.452 |
| O=C(/C=C/Sc1ccccc1)c1ccccc1 | 0.652 |
| CCOC(=O)C(=Cc1ccc(-n2cncn2)cc1)C(=O)OCC | -0.721 |
| COc1ccc(N=C2S/C(=C\c3ccc(N4CCOCC4)o3)C(=O)N2CCc2c[nH]c3ccccc23)cc1 | 0.568 |
| O=c1c2ccccc2sn1-c1ccccc1 | 0.217 |

— PubChem BioAssay AID463116 (University of Pittsburgh Molecular Library Screening Center, 2010)
